The other results are listed elsewhere or left out. Many values rest on one well or one pass, so single values are uncertain.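 The apoptosis fraction was the count of cleaved-PARP antibody-stained nuclei relative to all DNA-stained nuclei, imaged in 1,536-well plates. Screening doses were set so most cells survived, and baseline and induced cleaved-PARP levels vary greatly across cell lines.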
Key:
Assay in all cases: cleaved PARP positive nuclei fraction relative to DMSO control; melanoma cells; higher = more apoptosis
Details in all cases: library dose: low library concentration; 72 h
MZ2-MEL = tested on: MZ2-MEL
MeWo = tested on: MeWo
RPMI7951 = tested on: RPMI7951
RVH-421 = tested on: RVH-421
SkMel28 = tested on: SkMel28
SkMel2 = tested on: SkMel2
SkMel30 = tested on: SkMel30
SkMel5 = tested on: SkMel5
UACC257 = tested on: UACC257
UACC62 = tested on: UACC62
WM115 = tested on: WM115
WM1716 = tested on: WM1716
WM1745 = tested on: WM1745
WM3526 = tested on: WM3526
WM3619 = tested on: WM3619
WM451Lu = tested on: WM451Lu

| SMILES | cleaved PARP positive nuclei fraction (MZ2-MEL) | cleaved PARP positive nuclei fraction (MeWo) | cleaved PARP positive nuclei fraction (RPMI7951) | cleaved PARP positive nuclei fraction (RVH-421) | cleaved PARP positive nuclei fraction (SkMel28) | cleaved PARP positive nuclei fraction (SkMel2) | cleaved PARP positive nuclei fraction (SkMel30) | cleaved PARP positive nuclei fraction (SkMel5) | cleaved PARP positive nuclei fraction (UACC257) | cleaved PARP positive nuclei fraction (UACC62) | cleaved PARP positive nuclei fraction (WM115) | cleaved PARP positive nuclei fraction (WM1716) | cleaved PARP positive nuclei fraction (WM1745) | cleaved PARP positive nuclei fraction (WM3526) | cleaved PARP positive nuclei fraction (WM3619) | cleaved PARP positive nuclei fraction (WM451Lu) |
| --- | --- | --- | --- | --- | --- | --- | --- | --- | --- | --- | --- | --- | --- | --- | --- | --- |
| CC(C)C[C@H](NC(=O)[C@H](Cc1ccccc1)NC(=O)c1cnccn1)B(O)O [Bortezomib] + c1cc(-c2cnn3cc(-c4ccc(OCCN5CCCCC5)cc4)cnc23)ccn1 [Dorsomorphin] (first compound 0.001 µM, partner dose 0.4 µM) | 370% | 184% | 35.9% | 309% | 87.7% | 65.9% | 422% | 165% | 272% | 199% | 39.8% | 1100% | 148% | 77.4% | 592% | 331% |
| Nc1ncn([C@H]2C[C@H](O)[C@@H](CO)O2)c(=O)n1 [decitabine] + CN(C)S(=O)(=O)c1ccc2c(c1)/C(=C/c1cc3c([nH]1)CCCC3)C(=O)N2 [SU6656] (first compound 0.1 µM, partner dose 0.4 µM) | 182% | 148% | 47.3% | 44.1% | 42.7% | 39.3% | 123% | 32.4% | 85% | 168% | 83.7% | 53% | 110% | 70.4% | 115% | 351% |
| C[C@@H](Oc1cc(-c2cnn(C3CCNCC3)c2)cnc1N)c1c(Cl)ccc(F)c1Cl [Crizotinib] + NC(=O)Nc1cc(-c2cccc(F)c2)sc1C(=O)N[C@H]1CCCNC1 [AZD7762] (first compound 0.2 µM, partner dose 0.02 µM) | 74.6% | 103% | 50.6% | 86% | 127% | 177% | 107% | 89.8% | 54.5% | 91.3% | 117% | 81.6% | 83.7% | 63.8% | 170% | 58.1% |
| CNC(=O)c1cc(Oc2ccc(NC(=O)Nc3ccc(Cl)c(C(F)(F)F)c3)cc2)ccn1 [sorafenib] + O=C1NC(=O)/C(=C/c2ccc(-c3ccc(F)cc3O)o2)S1 [AS252424] (first compound 0.4 µM, partner dose 1 µM) | 146% | 95.2% | 81% | 51.6% | 149% | 114% | 52% | 156% | 235% | 29.5% | 109% | 175% | 97.8% | 75.4% | 103% | 34.5% |
| CC(C)C[C@H](NC(=O)[C@H](Cc1ccccc1)NC(=O)c1cnccn1)B(O)O [Bortezomib] + CO[C@@H]1[C@H](N(C)C(=O)c2ccccc2)C[C@H]2O[C@]1(C)n1c3ccccc3c3c4c(c5c6ccccc6n2c5c31)C(=O)NC4 [Midostaurin] (first compound 0.001 µM, partner dose 0.08 µM) | 210% | 103% | 82.7% | 44.5% | 52.9% | 147% | 60.7% | 97.3% | 163% | 51.2% | 83.4% | 551% | 171% | 116% | 441% | 360% |
| O=C(O)c1ccc2c(c1)nc(Nc1cccc(Cl)c1)c1ccncc12 + NC(=O)Nc1cc(-c2cccc(F)c2)sc1C(=O)N[C@H]1CCCNC1 [AZD7762] (first compound 0.4 µM, partner dose 0.02 µM) | 66.4% | 65.3% | 160% | 72% | 96.6% | 108% | 60.2% | 58.7% | 156% | 56.7% | 128% | 306% | 85.6% | 164% | 84.4% | 64.8% |
| Nc1ccn([C@@H]2O[C@H](CO)[C@@H](O)C2(F)F)c(=O)n1 [gemcitabine] + O=C(O)c1ccc(-c2c[nH]c3ncc(-c4ccccc4)cc23)cc1C1CCCC1 [GSK650394] (first compound 0.0004 µM, partner dose 0.16 µM) | 190% | 85.4% | 178% | 64.2% | 91.8% | 106% | 46% | 25% | 54.2% | 25.9% | 39.6% | 71.1% | 228% | 77.5% | 133% | 24.4% |
| Cc1cc(Nc2cc(N3CCN(C)CC3)nc(/C=C/c3ccccc3)n2)n[nH]1 + c1cc(-c2cnn3cc(-c4ccc(OCCN5CCCCC5)cc4)cnc23)ccn1 [Dorsomorphin] (first compound 0.04 µM, partner dose 0.4 µM) | 166% | 71.2% | 134% | 29.9% | 39.9% | 63.7% | 122% | 101% | 42.4% | 92% | 92.3% | 417% | 102% | 68.6% | 67.2% | 47.2% |
| C=C(c1ccc(C(=O)O)cc1)c1cc2c(cc1C)C(C)(C)CCC2(C)C [Bexarotene] + COC(=O)c1sccc1S(=O)(=O)Nc1ccc(Nc2ccccc2)cc1OC [GSK0660] (first compound 2 µM, partner dose 1 µM) | 139% | 166% | 89.2% | 116% | 228% | 67.8% | 40.2% | 171% | 60.6% | 113% | 81.1% | 81.7% | 96.9% | 40.1% | 98.1% | 55.1% |
| C=C(c1ccc(C(=O)O)cc1)c1cc2c(cc1C)C(C)(C)CCC2(C)C [Bexarotene] + Cn1cncc1[C@@](N)(c1ccc(Cl)cc1)c1ccc2c(c1)c(-c1cccc(Cl)c1)cc(=O)n2C [tipifarnib] (first compound 2 µM, partner dose 0.01 µM) | 67% | 54.2% | 227% | 32.1% | 66.5% | 128% | 53.3% | 133% | 50.1% | 81.3% | 36.9% | 33.9% | 92% | 67.6% | 131% | 264% |
| CC(C)C[C@H](NC(=O)[C@H](Cc1ccccc1)NC(=O)c1cnccn1)B(O)O [Bortezomib] + COc1cc2ncnc(Nc3ccc(Oc4ccccc4)cc3)c2cc1OC [SrcI1] (first compound 0.001 µM, partner dose 2 µM) | 277% | 89% | 107% | 404% | 214% | 149% | 33.6% | 67.7% | 162% | 67.6% | 42.4% | 221% | 294% | 94.7% | 1480% | 75.5% |
| O=C(O)[C@@H]1[O][Sb](=[O])([O][Sb]2(=[O])[O][C@H]([C@H](O)CO)[C@H](O)[C@H](C(=O)O)[O]2)[O][C@H]([C@H](O)CO)[C@@H]1O (some centres undefined) [stibogluconate] + O=C(O)c1ccc(-c2c[nH]c3ncc(-c4ccccc4)cc23)cc1C1CCCC1 [GSK650394] (first compound 2 µM, partner dose 0.16 µM) | 116% | 313% | 39.9% | 81.2% | 108% | 61.9% | 90.2% | 129% | 102% | 59% | 44.5% | 55.5% | 68% | 293% | 80% | 214% |
| CS(=O)(=O)CCNCc1ccc(-c2ccc3ncnc(Nc4ccc(OCc5cccc(F)c5)c(Cl)c4)c3c2)o1 [lapatinib] + CCc1ccc(CCOc2ccc(CC3SC(=O)NC3=O)cc2)nc1 [pioglitazone] (first compound 0.8 µM, partner dose 2 µM) | 125% | 55% | 158% | 50.6% | 19.4% | 71.9% | 279% | 77.5% | 107% | 97.7% | 34.2% | 70.3% | 105% | 84.3% | 112% | 161% |
| O=C(O)c1ccc2c(c1)nc(Nc1cccc(Cl)c1)c1ccncc12 + O=C1NC(=O)/C(=C/c2ccc(-c3ccc(F)cc3O)o2)S1 [AS252424] (first compound 0.4 µM, partner dose 1 µM) | 185% | 95.8% | 170% | 82.5% | 99.2% | 72.4% | 70.6% | 177% | 163% | 126% | 108% | 124% | 106% | 250% | 87.2% | 67.4% |
| Cn1c(=O)n(-c2ccc(C(C)(C)C#N)cc2)c2c3cc(-c4cnc5ccccc5c4)ccc3ncc21 + CCc1ccc(CCOc2ccc(CC3SC(=O)NC3=O)cc2)nc1 [pioglitazone] (first compound 0.004 µM, partner dose 2 µM) | 26.2% | 90.8% | 124% | 92.2% | 372% | 48.4% | 46.2% | 62.8% | 298% | 78.5% | 75.5% | 64.5% | 81.5% | 88.8% | 90.6% | 155% |
| CC(C)C[C@H](NC(=O)[C@H](Cc1ccccc1)NC(=O)c1cnccn1)B(O)O [Bortezomib] + CCCCCCCCCCCC1=C(O)C(=O)C=C(O)C1=O [Embelin] (first compound 0.001 µM, partner dose 1.2 µM) | 99.9% | 83.9% | 68.3% | 68.2% | 64.7% | 81.5% | 146% | 77% | 44.4% | 66.2% | 64.1% | 19.2% | 79% | 71% | 82.3% | 79.8% |
| Nc1nc(F)nc2c1ncn2[C@@H]1O[C@H](CO)[C@@H](O)[C@@H]1O [fludarabine] + c1cc(-c2cnn3cc(-c4ccc(OCCN5CCCCC5)cc4)cnc23)ccn1 [Dorsomorphin] (first compound 0.2 µM, partner dose 0.4 µM) | 144% | 1800% | 111% | 38.4% | 188% | 2180% | 3650% | 298% | 200% | 95.8% | 108% | 96.7% | 88.3% | 355% | 96.7% | 1280% |
| CNC(=O)c1cc(Oc2ccc(NC(=O)Nc3ccc(Cl)c(C(F)(F)F)c3)cc2)ccn1 [sorafenib] + CN(NC(=O)CC(=O)NN(C)C(=S)c1ccccc1)C(=S)c1ccccc1 [STA4783] (first compound 0.4 µM, partner dose 0.006 µM) | 292% | 169% | 51.3% | 51.3% | 130% | 70% | 59.2% | 296% | 123% | 61.6% | 79.7% | 240% | 429% | 129% | 213% | 136% |
| Nc1ncn([C@H]2C[C@H](O)[C@@H](CO)O2)c(=O)n1 [decitabine] + OCCn1cc(-c2cnc3nnn(Cc4ccc5ncccc5c4)c3n2)cn1 [PF04217903] (first compound 0.1 µM, partner dose 1 µM) | 169% | 60.9% | 147% | 106% | 61.8% | 96.5% | 52.9% | 163% | 54.5% | 63.5% | 208% | 43.8% | 68.1% | 70.4% | 66.6% | 23.1% |

Quoted at random: 2 entries already listed

| SMILES | cleaved PARP positive nuclei fraction (MZ2-MEL) | cleaved PARP positive nuclei fraction (MeWo) | cleaved PARP positive nuclei fraction (RPMI7951) | cleaved PARP positive nuclei fraction (RVH-421) | cleaved PARP positive nuclei fraction (SkMel28) | cleaved PARP positive nuclei fraction (SkMel2) | cleaved PARP positive nuclei fraction (SkMel30) | cleaved PARP positive nuclei fraction (SkMel5) | cleaved PARP positive nuclei fraction (UACC257) | cleaved PARP positive nuclei fraction (UACC62) | cleaved PARP positive nuclei fraction (WM115) | cleaved PARP positive nuclei fraction (WM1716) | cleaved PARP positive nuclei fraction (WM1745) | cleaved PARP positive nuclei fraction (WM3526) | cleaved PARP positive nuclei fraction (WM3619) | cleaved PARP positive nuclei fraction (WM451Lu) |
| --- | --- | --- | --- | --- | --- | --- | --- | --- | --- | --- | --- | --- | --- | --- | --- | --- |
| C=C(c1ccc(C(=O)O)cc1)c1cc2c(cc1C)C(C)(C)CCC2(C)C [Bexarotene] + Cn1cncc1[C@@](N)(c1ccc(Cl)cc1)c1ccc2c(c1)c(-c1cccc(Cl)c1)cc(=O)n2C [tipifarnib] (first compound 2 µM, partner dose 0.01 µM) | 67% | 54.2% | 227% | 32.1% | 66.5% | 128% | 53.3% | 133% | 50.1% | 81.3% | 36.9% | 33.9% | 92% | 67.6% | 131% | 264% |
| Nc1ncn([C@H]2C[C@H](O)[C@@H](CO)O2)c(=O)n1 [decitabine] + OCCn1cc(-c2cnc3nnn(Cc4ccc5ncccc5c4)c3n2)cn1 [PF04217903] (first compound 0.1 µM, partner dose 1 µM) | 169% | 60.9% | 147% | 106% | 61.8% | 96.5% | 52.9% | 163% | 54.5% | 63.5% | 208% | 43.8% | 68.1% | 70.4% | 66.6% | 23.1% |

— the supplement of paper PMC4604168 (melanoma cell lines)
